Experiment in all cases: 1D 1H NMR at increasing sample concentrations; 1H 1D spectra of each Tudor domain in its NMR buffer at increasing concentrations (typically 0.1–0.5 mM); amide region checked for concentration-dependent aggregation; NusG/RfaH: 25 mM HEPES pH 7.5, 50 mM NaCl; SMN: 25 mM potassium phosphate pH 6.8, 20 mM NaCl, 2 mM DTT; both purified
The target in assay [1] is NusG Tudor domain (123–181) (UniProt P0AFG0).
For assay [2], the target named is SMN Tudor domain (82–147) (UniProt Q16637).
The target of assay [3] is RfaH Tudor domain (101–162) (UniProt P0AFW0).

Chains of the proteins cited; added tags and fusions are not shown. Residues count along the entry.
UniProt P0AFG0, residues 123-181: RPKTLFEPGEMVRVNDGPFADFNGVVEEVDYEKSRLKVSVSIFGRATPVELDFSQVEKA
UniProt Q16637, residues 82-147: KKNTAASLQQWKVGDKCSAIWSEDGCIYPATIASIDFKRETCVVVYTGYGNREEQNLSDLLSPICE

No constants are given. Whether binding was seen depends on the method and setting.

As to “NusG Tudor domain (123–181) (from UniProt P0AFG0 123-181) (domain or fragment)”, the binding entry in assay [1] is recorded as “no binding (tested: ∼500 μM)”.
In the case of “SMN Tudor domain (82–147) (from UniProt Q16637 82-147) (domain or fragment)”, the binding result in assay [2] is “no binding (tested: ∼500 μM)”.

B1: RfaH Tudor domain (101–162) (domain or fragment, UniProt P0AFW0 101-162)
chain: PKDIVDPATPYPGDKVIITEGAFEGFQAIFTEPDGEARSMLLLNLINKEIKHSVKNTEFRKL
Take B1: the binding result in assay [3] is recorded as “no binding (tested: ∼500 μM)”.

(Values after article PMC8567434.)
